Measured values taken from publication PMC4636271.
These are yes or no findings as the source states them, for the method shown. In cells and extracts the contact can be indirect. These calls come from enrichment with a bait or labelling near it, and not all partners need be listed. A no says only that the protein was not detected with the bait.

Protein sequences, listed by entry. Tags and fused reporters are not part of them.
UniProt Q15046: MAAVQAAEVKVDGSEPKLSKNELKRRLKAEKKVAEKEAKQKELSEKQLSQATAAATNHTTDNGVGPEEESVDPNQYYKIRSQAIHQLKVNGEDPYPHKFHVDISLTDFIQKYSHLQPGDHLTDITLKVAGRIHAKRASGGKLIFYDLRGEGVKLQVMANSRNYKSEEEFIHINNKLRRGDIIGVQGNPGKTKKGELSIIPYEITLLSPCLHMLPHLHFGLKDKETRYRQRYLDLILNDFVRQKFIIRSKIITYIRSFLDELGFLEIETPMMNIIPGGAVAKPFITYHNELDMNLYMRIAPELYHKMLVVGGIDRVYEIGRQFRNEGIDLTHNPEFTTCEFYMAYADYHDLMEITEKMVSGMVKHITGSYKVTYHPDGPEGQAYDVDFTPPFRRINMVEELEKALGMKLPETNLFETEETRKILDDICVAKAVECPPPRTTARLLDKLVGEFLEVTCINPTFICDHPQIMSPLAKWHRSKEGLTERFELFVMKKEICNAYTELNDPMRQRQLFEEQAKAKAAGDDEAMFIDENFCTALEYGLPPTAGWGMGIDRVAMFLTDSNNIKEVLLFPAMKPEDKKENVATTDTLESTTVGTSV
UniProt P07814: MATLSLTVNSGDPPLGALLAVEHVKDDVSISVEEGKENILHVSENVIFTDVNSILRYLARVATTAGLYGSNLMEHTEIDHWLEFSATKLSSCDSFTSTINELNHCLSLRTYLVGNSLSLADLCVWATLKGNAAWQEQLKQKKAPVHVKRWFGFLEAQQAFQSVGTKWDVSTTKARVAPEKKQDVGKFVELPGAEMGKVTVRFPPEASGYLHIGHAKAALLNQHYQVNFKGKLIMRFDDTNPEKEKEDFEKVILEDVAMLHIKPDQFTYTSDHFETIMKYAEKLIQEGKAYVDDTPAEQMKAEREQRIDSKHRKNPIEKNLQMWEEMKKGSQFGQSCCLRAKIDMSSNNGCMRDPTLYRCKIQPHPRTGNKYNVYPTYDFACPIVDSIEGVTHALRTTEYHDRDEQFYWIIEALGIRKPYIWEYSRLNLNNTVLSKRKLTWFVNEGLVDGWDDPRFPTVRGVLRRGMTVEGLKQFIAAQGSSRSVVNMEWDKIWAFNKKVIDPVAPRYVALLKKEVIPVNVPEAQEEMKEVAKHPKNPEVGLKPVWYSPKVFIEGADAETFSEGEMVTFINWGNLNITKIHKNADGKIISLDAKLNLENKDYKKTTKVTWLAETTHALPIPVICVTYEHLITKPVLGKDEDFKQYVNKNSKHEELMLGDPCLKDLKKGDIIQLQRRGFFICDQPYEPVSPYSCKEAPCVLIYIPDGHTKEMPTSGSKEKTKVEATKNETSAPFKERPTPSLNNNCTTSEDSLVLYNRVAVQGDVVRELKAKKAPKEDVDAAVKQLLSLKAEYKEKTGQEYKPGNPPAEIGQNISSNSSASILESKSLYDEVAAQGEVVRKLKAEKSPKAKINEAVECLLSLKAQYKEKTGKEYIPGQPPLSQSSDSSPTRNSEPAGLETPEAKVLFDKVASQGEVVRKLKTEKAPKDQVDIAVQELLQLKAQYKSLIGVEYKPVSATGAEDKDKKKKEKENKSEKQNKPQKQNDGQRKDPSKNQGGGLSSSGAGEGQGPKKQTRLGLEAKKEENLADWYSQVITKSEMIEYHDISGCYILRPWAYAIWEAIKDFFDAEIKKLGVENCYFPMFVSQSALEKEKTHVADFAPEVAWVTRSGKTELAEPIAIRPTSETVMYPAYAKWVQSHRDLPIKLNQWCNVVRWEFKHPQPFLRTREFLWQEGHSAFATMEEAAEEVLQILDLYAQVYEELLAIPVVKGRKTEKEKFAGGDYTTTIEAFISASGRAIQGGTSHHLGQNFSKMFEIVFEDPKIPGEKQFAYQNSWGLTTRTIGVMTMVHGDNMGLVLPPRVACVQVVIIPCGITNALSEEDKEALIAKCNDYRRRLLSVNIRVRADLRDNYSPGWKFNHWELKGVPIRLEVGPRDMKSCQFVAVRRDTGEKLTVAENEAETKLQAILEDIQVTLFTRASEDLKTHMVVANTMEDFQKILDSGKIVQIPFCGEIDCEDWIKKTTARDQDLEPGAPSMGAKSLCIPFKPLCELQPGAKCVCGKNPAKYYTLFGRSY

B1: IARS (enzyme, UniProt P41252 1-1262)
chain: MLQQVPENINFPAEEEKILEFWTEFNCFQECLKQSKHKPKFTFYDGPPFATGLPHYGHILAGTIKDIVTRYAHQSGFHVDRRFGWDCHGLPVEYEIDKTLGIRGPEDVAKMGITEYNNQCRAIVMRYSAEWKSTVSRLGRWIDFDNDYKTLYPQFMESVWWVFKQLYDKGLVYRGVKVMPFSTACNTPLSNFESHQNYKDVQDPSVFVTFPLEEDETVSLVAWTTTPWTLPSNLAVCVNPEMQYVKIKDVARGRLLILMEARLSALYKLESDYEILERFPGAYLKGKKYRPLFDYFLKCKENGAFTVLVDNYVKEEEGTGVVHQAPYFGAEDYRVCMDFNIIRKDSLPVCPVDASGCFTTEVTDFAGQYVKDADKSIIRTLKEQGRLLVATTFTHSYPFCWRSDTPLIYKAVPSWFVRVENMVDQLLRNNDLCYWVPELVREKRFGNWLKDARDWTISRNRYWGTPIPLWVSDDFEEVVCIGSVAELEELSGAKISDLHRESVDHLTIPSRCGKGSLHRISEVFDCWFESGSMPYAQVHYPFENKREFEDAFPADFIAEGIDQTRGWFYTLLVLATALFGQPPFKNVIVNGLVLASDGQKMSKRKKNYPDPVSIIQKYGADALRLYLINSPVVRAENLRFKEEGVRDVLKDVLLPWYNAYRFLIQNVLRLQKEEEIEFLYNENTVRESPNITDRWILSFMQSLIGFFETEMAAYRLYTVVPRLVKFVDILTNWYVRMNRRRLKGENGMEDCVMALETLFSVLLSLCRLMAPYTPFLTELMYQNLKVLIDPVSVQDKDTLSIHYLMLPRVREELIDKKTESAVSQMQSVIELGRVIRDRKTIPIKYPLKEIVVIHQDPEALKDIKSLEKYIIEELNVRKVTLSTDKNKYGIRLRAEPDHMVLGKRLKGAFKAVMTSIKQLSSEELEQFQKTGTIVVEGHELHDEDIRLMYTFDQATGGTAQFEAHSDAQALVLLDVTPDQSMVDEGMAREVINRIQKLRKKCNLVPTDEITVYYKAKSEGTYLNSVIESHTEFIFTTIKAPLKPYPVSPSDKVLIQEKTQLKGSELEITLTRGSSLPGPACAYVNLNICANGSEQGGVLLLENPKGDNRLDLLKLKSVVTSIFGVKNTELAVFHDETEIQNQTDLLSLSGKTLCVTAGSAPSLINSSSTLLCQYINLQLLNAKPQECLMGTVGTLLLENPLGQNGLTHQGLLYEAAKVFGLRSRKLKLFLNETQTQEITEDIPVKTLNMKTVYVSVLPTTADF
B2: MARS (enzyme, UniProt P56192 1-900)
chain: MRLFVSDGVPGCLPVLAAAGRARGRAEVLISTVGPEDCVVPFLTRPKVPVLQLDSGNYLFSTSAICRYFFLLSGWEQDDLTNQWLEWEATELQPALSAALYYLVVQGKKGEDVLGSVRRALTHIDHSLSRQNCPFLAGETESLADIVLWGALYPLLQDPAYLPEELSALHSWFQTLSTQEPCQRAAETVLKQQGVLALRPYLQKQPQPSPAEGRAVTNEPEEEELATLSEEEIAMAVTAWEKGLESLPPLRPQQNPVLPVAGERNVLITSALPYVNNVPHLGNIIGCVLSADVFARYSRLRQWNTLYLCGTDEYGTATETKALEEGLTPQEICDKYHIIHADIYRWFNISFDIFGRTTTPQQTKITQDIFQQLLKRGFVLQDTVEQLRCEHCARFLADRFVEGVCPFCGYEEARGDQCDKCGKLINAVELKKPQCKVCRSCPVVQSSQHLFLDLPKLEKRLEEWLGRTLPGSDWTPNAQFITRSWLRDGLKPRCITRDLKWGTPVPLEGFEDKVFYVWFDATIGYLSITANYTDQWERWWKNPEQVDLYQFMAKDNVPFHSLVFPCSALGAEDNYTLVSHLIATEYLNYEDGKFSKSRGVGVFGDMAQDTGIPADIWRFYLLYIRPEGQDSAFSWTDLLLKNNSELLNNLGNFINRAGMFVSKFFGGYVPEMVLTPDDQRLLAHVTLELQHYHQLLEKVRIRDALRSILTISRHGNQYIQVNEPWKRIKGSEADRQRAGTVTGLAVNIAALLSVMLQPYMPTVSATIQAQLQLPPPACSILLTNFLCTLPAGHQIGTVSPLFQKLENDQIESLRQRFGGGQAKTSPKPAVVETVTTAKPQQIQALMDEVTKQGNIVRELKAQKADKNEVAAEVAKLLDLKKQLAVAEGKPPEAPKGKKKK
B3: GARS (enzyme, UniProt P41250 37-739)
chain: SAASCPPISLPAAASRSSMDGAGAEEVLAPLRLAVRQQGDLVRKLKEDKAPQVDVDKAVAELKARKRVLEAKELALQPKDDIVDRAKMEDTLKRRFFYDQAFAIYGGVSGLYDFGPVGCALKNNIIQTWRQHFIQEEQILEIDCTMLTPEPVLKTSGHVDKFADFMVKDVKNGECFRADHLLKAHLQKLMSDKKCSVEKKSEMESVLAQLDNYGQQELADLFVNYNVKSPITGNDLSPPVSFNLMFKTFIGPGGNMPGYLRPETAQGIFLNFKRLLEFNQGKLPFAAAQIGNSFRNEISPRSGLIRVREFTMAEIEHFVDPSEKDHPKFQNVADLHLYLYSAKAQVSGQSARKMRLGDAVEQGVINNTVLGYFIGRIYLYLTKVGISPDKLRFRQHMENEMAHYACDCWDAESKTSYGWIEIVGCADRSCYDLSCHARATKVPLVAEKPLKEPKTVNVVQFEPSKGAIGKAYKKDAKLVMEYLAICDECYITEMEMLLNEKGEFTIETEGKTFQLTKDMINVKRFQKTLYVEEVVPNVIEPSFGLGRIMYTVFEHTFHVREGDEQRTFFSFPAVVAPFKCSVLPLSQNQEFMPFVKELSEALTRHGVSHKVDDSSGSIGRRYARTDEIGVAFGVTIDFDTVNKTPHTATLRDRDSMRQIRAEISELPSIVQDLANGNITWADVEARYPLFEGQETGKKETIEE
B4: QARS (enzyme, UniProt P47897 1-775)
chain: MAALDSLSLFTSLGLSEQKARETLKNSALSAQLREAATQAQQTLGSTIDKATGILLYGLASRLRDTRRLSFLVSYIASKKIHTEPQLSAALEYVRSHPLDPIDTVDFERECGVGVIVTPEQIEEAVEAAINRHRPQLLVERYHFNMGLLMGEARAVLKWADGKMIKNEVDMQVLHLLGPKLEADLEKKFKVAKARLEETDRRTAKDVVENGETADQTLSLMEQLRGEALKFHKPGENYKTPGYVVTPHTMNLLKQHLEITGGQVRTRFPPEPNGILHIGHAKAINFNFGYAKANNGICFLRFDDTNPEKEEAKFFTAICDMVAWLGYTPYKVTYASDYFDQLYAWAVELIRRGLAYVCHQRGEELKGHNTLPSPWRDRPMEESLLLFEAMRKGKFSEGEATLRMKLVMEDGKMDPVAYRVKYTPHHRTGDKWCIYPTYDYTHCLCDSIEHITHSLCTKEFQARRSSYFWLCNALDVYCPVQWEYGRLNLHYAVVSKRKILQLVATGAVRDWDDPRLFTLTALRRRGFPPEAINNFCARVGVTVAQTTMEPHLLEACVRDVLNDTAPRAMAVLESLRVIITNFPAAKSLDIQVPNFPADETKGFHQVPFAPIVFIERTDFKEEPEPGFKRLAWGQPVGLRHTGYVIELQHVVKGPSGCVESLEVTCRRADAGEKPKAFIHWVSQPLMCEVRLYERLFQHKNPEDPTEVPGGFLSDLNLASLHVVDAALVDCSVALAKPFDKFQFERLGYFSVDPDSHQGKLVFNRTVTLKEDPGKV
B5: WARS (enzyme, UniProt P23381 1-471)
chain: MPNSEPASLLELFNSIATQGELVRSLKAGNASKDEIDSAVKMLVSLKMSYKAAAGEDYKADCPPGNPAPTSNHGPDATEAEEDFVDPWTVQTSSAKGIDYDKLIVRFGSSKIDKELINRIERATGQRPHHFLRRGIFFSHRDMNQVLDAYENKKPFYLYTGRGPSSEAMHVGHLIPFIFTKWLQDVFNVPLVIQMTDDEKYLWKDLTLDQAYSYAVENAKDIIACGFDINKTFIFSDLDYMGMSSGFYKNVVKIQKHVTFNQVKGIFGFTDSDCIGKISFPAIQAAPSFSNSFPQIFRDRTDIQCLIPCAIDQDPYFRMTRDVAPRIGYPKPALLHSTFFPALQGAQTKMSASDPNSSIFLTDTAKQIKTKVNKHAFSGGRDTIEEHRQFGGNCDVDVSFMYLTFFLEDDDKLEQIRKDYTSGAMLTGELKKALIEVLQPLIAEHQARRKEVTDEIVKEFMTPRKLSFDFQ
B6: CARS (enzyme, UniProt P49589 1-748)
chain: MADSSGQQGKGRRVQPQWSPPAGTQPCRLHLYNSLTRNKEVFIPQDGKKVTWYCCGPTVYDASHMGHARSYISFDILRRVLKDYFKFDVFYCMNITDIDDKIIKRARQNHLFEQYREKRPEAAQLLEDVQAALKPFSVKLNETTDPDKKQMLERIQHAVQLATEPLEKAVQSRLTGEEVNSCVEVLLEEAKDLLSDWLDSTLGCDVTDNSIFSKLPKFWEGDFHRDMEALNVLPPDVLTRVSEYVPEIVNFVQKIVDNGYGYVSNGSVYFDTAKFASSEKHSYGKLVPEAVGDQKALQEGEGDLSISADRLSEKRSPNDFALWKASKPGEPSWPCPWGKGRPGWHIECSAMAGTLLGASMDIHGGGFDLRFPHHDNELAQSEAYFENDCWVRYFLHTGHLTIAGCKMSKSLKNFITIKDALKKHSARQLRLAFLMHSWKDTLDYSSNTMESALQYEKFLNEFFLNVKDILRAPVDITGQFEKWGEEEAELNKNFYDKKTAIHKALCDNVDTRTVMEEMRALVSQCNLYMAARKAVRKRPNQALLENIALYLTHMLKIFGAVEEDSSLGFPVGGPGTSLSLEATVMPYLQVLSEFREGVRKIAREQKVPEILQLSDALRDNILPELGVRFEDHEGLPTVVKLVDRNTLLKEREEKRRVEEEKRKKKEEAARRKQEQEAAKLAKMKIPPSEMFLSETDKYSKFDENGLPTHDMEGKELSKGQAKKLKKLFEAQEKLYKEYLQMAQNGSFQ
B7: Threonyl-tRNA synthetase (TARS) (enzyme, UniProt P26639 1-723)
chain: MFEEKASSPSGKMGGEEKPIGAGEEKQKEGGKKKNKEGSGDGGRAELNPWPEYIYTRLEMYNILKAEHDSILAEKAEKDSKPIKVTLPDGKQVDAESWKTTPYQIACGISQGLADNTVIAKVNNVVWDLDRPLEEDCTLELLKFEDEEAQAVYWHSSAHIMGEAMERVYGGCLCYGPPIENGFYYDMYLEEGGVSSNDFSSLEALCKKIIKEKQAFERLEVKKETLLAMFKYNKFKCRILNEKVNTPTTTVYRCGPLIDLCRGPHVRHTGKIKALKIHKNSSTYWEGKADMETLQRIYGISFPDPKMLKEWEKFQEEAKNRDHRKIGRDQELYFFHELSPGSCFFLPKGAYIYNALIEFIRSEYRKRGFQEVVTPNIFNSRLWMTSGHWQHYSENMFSFEVEKELFALKPMNCPGHCLMFDHRPRSWRELPLRLADFGVLHRNELSGALTGLTRVRRFQQDDAHIFCAMEQIEDEIKGCLDFLRTVYSVFGFSFKLNLSTRPEKFLGDIEVWDQAEKQLENSLNEFGEKWELNSGDGAFYGPKIDIQIKDAIGRYHQCATIQLDFQLPIRFNLTYVSHDGDDKKRPVIVHRAILGSVERMIAILTENYGGKWPFWLSPRQVMVVPVGPTCDEYAQKVRQQFHDAKFMADIDLDPGCTLNKKIRNAQLAQYNFILVVGEKEKISGTVNIRTRDNKVHGERTISETIERLQQLKEFRSKQAEEEF

Each molecule was assayed against lysyl-tRNA synthetase (KARS) tagged with S/FLAG/SBP (UniProt Q15046) (assay: affinity purification with mass spectrometry; S/FLAG/SBP-KARS in lysate (2 mg) of transfected HEK 293T cells held on streptavidin agarose, NETN buffer (20 mM Tris-HCl pH 7.5, 1 mM EDTA, 150 mM NaCl, 0.1% NP-40), 2 h, 4°C, three washes, eluted with 0.82 mM biotin; eluate fractionated by SEC (Superdex 200, PBS) and each fraction read by MRM-MS).

| binding | Molecule |
| --- | --- |
| binds | EPRS (from UniProt P07814 1-1512) (enzyme) |
| binds | B1 |
| binds | B2 |
| no binding | B3 |
| binds | B4 |
| no binding | B5 |
| no binding | B6 |
| no binding | B7 |
